Results are given in words; binding and its absence hold for the method and conditions named. Binding seen in cells or lysates may run through a third protein. Some results given as binding are weak or reduced against the parent protein; the word gives no strength.

Chains of the proteins cited; added tags and fusions are not shown. Lines headed by an entry give the natural chain unless they say otherwise; changes in a name come on top.
UniProt Q7KN62: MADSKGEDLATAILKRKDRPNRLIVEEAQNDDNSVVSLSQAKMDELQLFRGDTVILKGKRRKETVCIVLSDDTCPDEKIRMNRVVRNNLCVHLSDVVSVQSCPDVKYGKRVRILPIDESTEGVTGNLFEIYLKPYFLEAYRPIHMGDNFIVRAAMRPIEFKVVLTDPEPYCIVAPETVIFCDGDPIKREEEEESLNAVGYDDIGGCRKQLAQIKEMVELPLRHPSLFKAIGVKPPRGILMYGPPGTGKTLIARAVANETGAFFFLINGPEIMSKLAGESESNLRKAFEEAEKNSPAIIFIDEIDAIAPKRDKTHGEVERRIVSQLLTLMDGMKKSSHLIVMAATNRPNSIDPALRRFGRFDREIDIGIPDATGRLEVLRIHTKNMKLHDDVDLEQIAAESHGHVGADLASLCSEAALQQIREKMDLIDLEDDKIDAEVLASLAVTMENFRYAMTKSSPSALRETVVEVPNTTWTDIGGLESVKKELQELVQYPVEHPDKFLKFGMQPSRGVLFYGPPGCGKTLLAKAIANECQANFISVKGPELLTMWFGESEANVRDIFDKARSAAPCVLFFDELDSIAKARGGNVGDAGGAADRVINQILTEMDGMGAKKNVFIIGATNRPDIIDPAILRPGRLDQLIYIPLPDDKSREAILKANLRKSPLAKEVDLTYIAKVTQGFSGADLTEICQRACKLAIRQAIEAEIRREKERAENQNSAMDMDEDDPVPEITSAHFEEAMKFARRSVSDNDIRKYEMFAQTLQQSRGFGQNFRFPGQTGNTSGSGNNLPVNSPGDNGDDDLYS

Assay [1] has as its target VCP^P134L-sfGFP (Drosophila VCP P134L tagged with sfGFP at the endogenous locus) (Drosophila) (UniProt Q7KN62). In words: co-IP; co-immunoprecipitation of endogenously expressed VCP with VCP-sfGFP from heterozygous (transheterozygote) flies.
Assay [2] concerns the target VCP^WT-sfGFP (Drosophila VCP tagged with sfGFP at the endogenous locus) (Drosophila) (UniProt Q7KN62). The description is as above.

Turning to “wild-type VCP (endogenous, untagged, Drosophila) (from UniProt Q7KN62 1-801)”, the binding result in assay [1] and in assay [2] was “binds” each time.

Values taken from paper PMC7820495.
